# Experimental data taken from PubChem BioAssay AID493014 (National Center for Advancing Translational Sciences (NCATS), 2011).
# The other results are listed elsewhere or left out. These are further read-outs of the screen, such as a control signal, another cell line or another target. No call is given for them. Compounds called inactive in the main read-out are mostly missing here. Potencies come from curve fits of mixed quality, noted in brackets.
# Experiment: qHTS Assay to Find Inhibitors of Chronic Active B-Cell Receptor Signaling
# Conditions: ABC-DLBCL IkBa-CBG/CBR reporter, luminescence ratio (green luciferase fused to IkBa over red control in TMD8 lymphoma cells), 4 h
# Method in brief: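 TMD8 ABC-DLBCL cells carrying doxycycline-inducible green luciferase fused to IkappaBalpha plus unfused red luciferase were exposed to compounds (up to 46 uM) for 4 hrs at 37C. Activity came from the overlap-corrected green/red luminescence ratio.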
# [1] = measured here: CBR red luminescence, cell number
structure (smiles),measurement,setting,value
Cc1ccc(C2=NC3(CCCC3)N=C2SCC(=O)Nc2ccc3c(c2)OCCO3)cc1,AC50,[1],"29.1 µM [falling, single point]"
COc1cc(C)nc(N2CCCC(C(=O)Nc3cccc(Cl)c3Cl)C2)n1 (stereo not given),AC50,[1],"13 µM [rising, partial curve, poor fit]"
CCC(=O)N1c2ccccc2[C@@H](N(C(C)=O)c2ccccc2)C[C@H]1C,AC50,[1],"6.51 µM [rising, full curve, poor fit]"
COC(=O)c1cccc(NC(=O)/C=C/c2cccc([N+](=O)[O-])c2)c1,AC50,[1],"7.94 µM [falling, partial curve, poor fit]"
O=C1/C(=C/c2ccc(F)cc2)SC(=S)N1CCCC(=O)N1CCCCC1CCO (stereo not given),AC50,[1],"11.2 µM [falling, partial curve]"
Nc1cc(=O)[nH]c(SCC(=O)c2ccc(F)cc2)n1,AC50,[1],"35.5 µM [rising, single point]"
C=CCn1c(C)cc(C(=O)COC(=O)CCc2cc(OC)c(OC)c(OC)c2)c1C,AC50,[1],"10.3 µM [rising, partial curve]"
C[C@H](NC(=O)c1ccc(Br)cc1)C(=O)NCc1ccc(S(N)(=O)=O)cc1,AC50,[1],"0.141 µM [falling, full curve, poor fit]"
CC(=O)c1c(C)[nH]c(C(=O)Nc2nccs2)c1C,AC50,[1],"1.41 µM [falling, full curve, poor fit]"
CC/C(Cc1ccccc1)=N\NC(=O)c1cc(C)oc1C,AC50,[1],"7.31 µM [falling, partial curve, poor fit]"
CC(C)(C)NC(=O)Cn1nnc(-c2ccccc2Cl)n1,AC50,[1],"35.5 µM [falling, partial curve, poor fit]"
CC1CCCN(c2c([N+](=O)[O-])cc(C(=O)O)cc2[N+](=O)[O-])C1 (stereo not given),AC50,[1],"22.4 µM [falling, single point]"
CC(=O)c1sc2nc(CSc3nnnn3-c3ccccc3)[nH]c(=O)c2c1C,AC50,[1],"10 µM [falling, partial curve, poor fit]"
O=C(C#Cc1ccccc1)c1ccc([N+](=O)[O-])cc1,AC50,[1],"18.4 µM [rising, partial curve, poor fit]"
O=C(CN1CCN(c2ccccc2O)CC1)NC(c1ccccc1)c1ccccc1,AC50,[1],"29.1 µM [falling, single point]"
CCN=C(NS(=O)(=O)c1ccc(Br)cc1)c1ccc(Cl)cc1,AC50,[1],"17.8 µM [falling, single point]"
Cc1c(Cl)cccc1NCC(=O)Nc1ccc(Cl)cc1F,AC50,[1],"8.2 µM [falling, partial curve]"
Cc1ccc(S(=O)(=O)N(C)CC(=O)NCC(c2ccco2)N(C)C)cc1 (stereo not given),AC50,[1],"29.1 µM [rising, single point]"
O=C(NNS(=O)(=O)c1ccc(Cl)cc1)c1cnn(-c2ccccc2)c1-n1cccc1,AC50,[1],"14.1 µM [falling, partial curve, poor fit]"
CCc1ccc(N2C(=O)c3sc4nnc(-c5ccccc5)c(=O)n4c3C2=O)cc1,AC50,[1],"23.1 µM [rising, single point]"
Oc1ccc(N=Nc2cccc(C(F)(F)F)c2)cc1C=Nc1ccc(N2CCOCC2)cc1,AC50,[1],"13 µM [rising, partial curve, poor fit]"
COc1ccccc1-c1csc(NC(=O)c2ccc(N3C(=O)CCC3=O)cc2)n1,AC50,[1],"10 µM [falling, partial curve]"
Cc1cc(C)c(C)c(C(=O)COC(=O)CNC(=O)CNC(=O)c2ccco2)c1C,AC50,[1],"12.6 µM [rising, single point]"
N#C/C(=C\c1ccc2c(c1)OCCO2)C(=O)Nc1nccs1,AC50,[1],"22.4 µM [falling, single point]"
C/C(=N\NC(=S)Nc1c(C)cccc1C)c1cc2ccccc2o1,AC50,[1],"6.51 µM [rising, single point]"
Cc1ccc(SCc2c(-c3ccccc3)nn(C)c2Cl)cc1,AC50,[1],"29.1 µM [rising, single point]"
COc1ccc(Cl)cc1NC(=O)NCc1cccnc1,AC50,[1],"8.91 µM [rising, partial curve, poor fit]"
O=C(CCC1N=C2c3ccccc3N=C(SCC(=O)NCC3CCCO3)N2C1=O)NCc1ccc(F)cc1 (stereo not given),AC50,[1],"0.355 µM [falling, partial curve, poor fit]"
CCn1c(SCC(=O)Nc2oc(-c3ccccc3)c(-c3ccccc3)c2C#N)nnc1-c1ccco1,AC50,[1],"29.1 µM [falling, single point]"
CN(C)CCCNc1nc(N)c([N+](=O)[O-])c(NCc2ccccc2)n1,AC50,[1],"25.1 µM [falling, partial curve]"
O=C(COc1ccc2ccccc2c1)NCCNC(=O)COc1ccc2ccccc2c1,AC50,[1],"2.59 µM [rising, partial curve, poor fit]"
CCN(CC(=O)Nc1ccc(NC(C)=O)cc1)C(=O)c1sc2nc3n(c(=O)c2c1C)CCC3,AC50,[1],"0.0291 µM [rising, full curve, poor fit]"
O=C(N/N=C/c1ccc(O)cc1)c1cc(-c2ccccc2)nc2ccccc12,AC50,[1],"15.8 µM [falling, partial curve, poor fit]"
CCC(C)(C)n1nnnc1C(c1ccc(C)cc1)N(Cc1ccco1)Cc1cccs1 (stereo not given),AC50,[1],"7.31 µM [falling, single point]"
Cc1nn(CC(=O)NCc2cccc3ccccc23)c(=O)c2ccccc12,AC50,[1],"11.2 µM [rising, partial curve, poor fit]"
O=C(Nc1ccc(Cl)c(S(=O)(=O)N2CCOCC2)c1)c1ccc2c(c1)OCCO2,AC50,[1],"35.5 µM [falling, single point]"
CCc1ccc(C(=O)Cn2ncc(Cl)c(Cl)c2=O)cc1,AC50,[1],"15.8 µM [falling, single point]"
Cc1nnsc1-c1nc2ccccc2[nH]1,AC50,[1],"35.5 µM [falling, single point]"
COc1cc(OC)cc(C(=O)Nc2nc(CC(=O)NC(C)c3ccccc3)cs2)c1 (stereo not given),AC50,[1],"16.4 µM [falling, single point]"
CC(=O)Nc1cc(-n2cnnn2)ccc1C,AC50,[1],"0.112 µM [falling, full curve, poor fit]"
O=C(O)c1cc(NCc2ccccc2C(F)(F)F)ccc1N1CCOCC1,AC50,[1],"25.1 µM [falling, partial curve, poor fit]"
CCCCCCSc1nsc(NC(=O)CC(C)C)n1,AC50,[1],"8.2 µM [rising, partial curve, poor fit]"
Cc1ccc(C)c(-c2cc(C(=O)NCc3cccs3)c3ccccc3n2)c1,AC50,[1],"1.58 µM [rising, partial curve, poor fit]"
O=C(O)CSc1cc(NS(=O)(=O)c2ccc(Br)cc2)c2ccccc2c1O,AC50,[1],"22.4 µM [falling, single point]"
O=[N+]([O-])c1ccc(NCCN2CCOCC2)c([N+](=O)[O-])c1,AC50,[1],"10 µM [rising, partial curve, poor fit]"
CCOC(=O)Cc1csc(NC(=O)c2ccc(F)cc2)n1,AC50,[1],"35.5 µM [falling, single point]"
CCOC(=O)c1ccccc1N=Cc1c(O)c2ccccc2oc1=O,AC50,[1],"2.51 µM [falling, full curve]"
Cc1oc2ccc(OCc3ccc(F)cc3Cl)cc2c1C(=O)O,AC50,[1],"12.6 µM [rising, partial curve, poor fit]"
O=C(Nc1ncc2c(n1)-c1ccccc1OC2)c1ccc(F)cc1,AC50,[1],"10 µM [falling, partial curve]"
Cc1c(C(=N)C(C#N)C#N)c(=N)oc2c1ccc1ccccc12,AC50,[1],"11.2 µM [rising, partial curve]"
CCCCOc1ccc(C(=O)NCC2(c3ccc(OC)cc3)CCOCC2)cc1,AC50,[1],"0.116 µM [rising, full curve, poor fit]"
C=CCn1c(SCc2cc(=O)n3ccsc3n2)nc2scc(C3CC3)c2c1=O,AC50,[1],"7.08 µM [falling, partial curve, poor fit]"
COc1ccc(NC(=O)c2noc(C(C)C)c2[N+](=O)[O-])cc1,AC50,[1],"2.82 µM [rising, single point]"
CN(C)CCCN1c2ccccc2CCc2ccc(Cl)cc21,AC50,[1],"17.8 µM [falling, single point]"
COc1ccc(C2/C=C\CN(C(=O)c3ccccc3)CC(=O)N2Cc2cccc(F)c2)cc1 (stereo not given),AC50,[1],"5.17 µM [rising, single point]"
O=[N+]([O-])c1cnccc1Nc1ccccc1,AC50,[1],"20.6 µM [rising, single point]"
O=C(NCc1ccccn1)Nc1cc(Cl)ccc1Cl,AC50,[1],"0.501 µM [rising, full curve, poor fit]"
c1ccc2cc3[nH]c(CN4CCCCC4)nc3cc2c1,AC50,[1],"9.2 µM [falling, partial curve]"
COC(=O)c1cccc(Nc2cc(C)nc(-c3ccccc3O)n2)c1,AC50,[1],"2.59 µM [falling, full curve]"
O=[N+]([O-])c1ccc(Cc2nnc(-c3ccccc3Cl)o2)cc1,AC50,[1],"7.08 µM [falling, full curve]"
COc1ccc(/C=N/NC(=O)c2cccc(NC(=O)c3ccccc3Cl)c2)c(OC)c1,AC50,[1],"15.8 µM [falling, single point]"
COc1ccc(-c2cn[nH]c2N)cc1,AC50,[1],"1.16 µM [falling, full curve, poor fit]"
Cc1nnc(SCCC#N)n(CCC#N)c1=O,AC50,[1],"29.1 µM [rising, single point]"
Cn1c2c(c3ccccc31)CC/C2=N\O,AC50,[1],"2.06 µM [rising, full curve, poor fit]"
same,AC50,measured here: IkBa-CBG green luminescence,"6.51 µM [falling, partial curve, poor fit]"

# Exported with tabs: entries from further up
structure (smiles)	measurement	setting	value
CC(=O)c1c(C)[nH]c(C(=O)Nc2nccs2)c1C	AC50	[1]	1.41 µM [falling, full curve, poor fit]
COc1ccc(-c2cn[nH]c2N)cc1	AC50	[1]	1.16 µM [falling, full curve, poor fit]
